# Results as given in the supplement of paper PMC8426693.
# This is one part of the list. Repeats are few or missing, and single values can be far off.
# Columns and labels:
# Conditions in all cases: RNA concentration 10 µM; fragment concentration 200 µM; 293 K
# [1] = test system: SARS-CoV-2 5_SL5 RNA; test: 1H chemical shift perturbation upon RNA addition; higher = stronger binding
# [2] = test system: SARS-CoV-2 3'-UTR RNA; test: waterLOGSY factor (bound vs free ligand) (ratio); higher = stronger binding
# [3] = test system: SARS-CoV-2 5_SL5 RNA; test: as above
# [4] = test system: SARS-CoV-2 5_SL5stem RNA; test: 1H chemical shift perturbation upon RNA addition; higher = stronger binding
# [5] = test system: SARS-CoV-2 3_SL3base RNA; test: waterLOGSY factor (bound vs free ligand) (ratio); higher = stronger binding
# [6] = test system: SARS-CoV-2 3_s2m RNA; test: as above
# [7] = test system: SARS-CoV-2 5_SL1234 RNA; test: as above
# [8] = test system: SARS-CoV-2 5_SL4 RNA; test: as above
# [9] = test system: SARS-CoV-2 5_SL8 RNA; test: 1H chemical shift perturbation upon RNA addition; higher = stronger binding
# [10] = test system: SARS-CoV-2 frameshift pseudoknot (PK) RNA; test: as above
# [11] = test system: SARS-CoV-2 3_SL1+2 RNA; test: waterLOGSY factor (bound vs free ligand) (ratio); higher = stronger binding
# [12] = test system: SARS-CoV-2 5'-UTR RNA; test: as above
# [13] = test system: SARS-CoV-2 5_SL1 RNA; test: as above
# [14] = test system: SARS-CoV-2 5_SL7 RNA; test: 1H chemical shift perturbation upon RNA addition; higher = stronger binding
# [15] = test system: SARS-CoV-2 5_SL5b+c RNA; test: as above
# [16] = test system: SARS-CoV-2 3_SL2 RNA; test: waterLOGSY factor (bound vs free ligand) (ratio); higher = stronger binding
# [17] = test system: SARS-CoV-2 5_SL5b+c RNA; test: as above
# [18] = test system: SARS-CoV-2 5_SL6 RNA; test: 1H chemical shift perturbation upon RNA addition; higher = stronger binding
# [19] = test system: SARS-CoV-2 3_SL1 RNA; test: waterLOGSY factor (bound vs free ligand) (ratio); higher = stronger binding
# [20] = test system: SARS-CoV-2 attenuator hairpin (att HP) RNA; test: 1H chemical shift perturbation upon RNA addition; higher = stronger binding
compound,measurement,setting,value
O=C(Nc1cccnc1)c1cnn2cccnc12,1H chemical shift perturbation upon RNA addition,[1],12 Hz
same,waterLOGSY factor,[2],6.03
same,waterLOGSY factor,[3],1.49
Cc1cccc(NC(=O)Nc2nc(C)cs2)c1,1H chemical shift perturbation upon RNA addition,[4],7 Hz
same,waterLOGSY factor,[2],1.61
same,waterLOGSY factor,[5],5.97
same,waterLOGSY factor,[6],4.57
same,waterLOGSY factor,[7],6.15
same,waterLOGSY factor,[8],2.03
same,waterLOGSY factor,[3],3.8
Cc1occc1C(=O)Nc1ccncc1,1H chemical shift perturbation upon RNA addition,[1],7 Hz
same,1H chemical shift perturbation upon RNA addition,[4],11 Hz
same,1H chemical shift perturbation upon RNA addition,[9],11.6 Hz
same,1H chemical shift perturbation upon RNA addition,[10],3 Hz
same,waterLOGSY factor,[2],2.04
same,waterLOGSY factor,[11],1.51
same,waterLOGSY factor,[5],1.81
same,waterLOGSY factor,[12],3.53
same,waterLOGSY factor,[13],0.68
same,waterLOGSY factor,[3],1.75
CC(=O)Nc1ccc(-c2csc(N)n2)cc1,1H chemical shift perturbation upon RNA addition,[1],10 Hz
same,waterLOGSY factor,[2],2.87
same,waterLOGSY factor,[12],8
same,waterLOGSY factor,[3],1.8
O=C(NO)c1ccc2ccccc2n1,1H chemical shift perturbation upon RNA addition,[4],6 Hz
CN1CCN(c2ccc(C#N)cc2)CC1,1H chemical shift perturbation upon RNA addition,[14],13 Hz
same,waterLOGSY factor,[2],1.45
Nc1nccc(-c2ccc(Cl)cc2)n1,1H chemical shift perturbation upon RNA addition,[1],15 Hz
same,1H chemical shift perturbation upon RNA addition,[15],5 Hz
same,waterLOGSY factor,[2],3.82
same,waterLOGSY factor,[16],1.78
same,waterLOGSY factor,[5],1.62
same,waterLOGSY factor,[12],2.23
same,waterLOGSY factor,[3],1.72
same,waterLOGSY factor,[17],1.21
Cc1ccc(-c2noc(CNC(C)C)n2)cc1,1H chemical shift perturbation upon RNA addition,[1],10 Hz
same,1H chemical shift perturbation upon RNA addition,[14],12 Hz
same,waterLOGSY factor,[2],1.64
same,waterLOGSY factor,[5],1.3
same,waterLOGSY factor,[3],1.26
c1ccc(-c2ccc(-n3cnnn3)cc2)cc1,1H chemical shift perturbation upon RNA addition,[18],7 Hz
same,1H chemical shift perturbation upon RNA addition,[14],8 Hz
same,1H chemical shift perturbation upon RNA addition,[10],3 Hz
Cl.NCc1cc(-c2ccccc2)no1,1H chemical shift perturbation upon RNA addition,[14],13 Hz
same,waterLOGSY factor,[2],1.43
same,waterLOGSY factor,[6],1
same,waterLOGSY factor,[12],5.09
CNCc1cnn(-c2ccccc2)c1,1H chemical shift perturbation upon RNA addition,[15],13 Hz
same,waterLOGSY factor,[12],1.46
same,waterLOGSY factor,[17],0.79
CC(C)c1ccc(C(=O)Nc2nncs2)cc1,1H chemical shift perturbation upon RNA addition,[1],12 Hz
same,waterLOGSY factor,[2],1.72
same,waterLOGSY factor,[3],1.25
O=C(Nc1ccccn1)c1cnccn1,1H chemical shift perturbation upon RNA addition,[1],5 Hz
same,waterLOGSY factor,[12],1.17
same,waterLOGSY factor,[3],1.15
c1ccc(NCC2CCNC2)nc1 (stereo not drawn),1H chemical shift perturbation upon RNA addition,[15],30 Hz
same,1H chemical shift perturbation upon RNA addition,[14],27 Hz
same,waterLOGSY factor,[12],1.93
same,waterLOGSY factor,[17],0.9
COc1ccc(Nc2ncnc3[nH]cnc23)cc1,1H chemical shift perturbation upon RNA addition,[1],7 Hz
same,waterLOGSY factor,[2],1.89
same,waterLOGSY factor,[5],1.23
same,waterLOGSY factor,[12],1.78
same,waterLOGSY factor,[3],1.04
COc1ccc2[nH]cc(CN(C)C)c2c1,1H chemical shift perturbation upon RNA addition,[14],7 Hz
same,waterLOGSY factor,[12],1.48
Cc1sc2ncnc(N(C)C)c2c1C,1H chemical shift perturbation upon RNA addition,[1],8 Hz
same,waterLOGSY factor,[2],2.56
same,waterLOGSY factor,[5],1.55
same,waterLOGSY factor,[12],3.07
same,waterLOGSY factor,[3],1.52
COc1ccc2sc(N)nc2c1,1H chemical shift perturbation upon RNA addition,[1],6 Hz
same,waterLOGSY factor,[2],2.65
same,waterLOGSY factor,[5],1.5
same,waterLOGSY factor,[12],1.95
same,waterLOGSY factor,[3],1.15
CN(C)c1ccc(C(=O)Nc2ccncc2)cc1,1H chemical shift perturbation upon RNA addition,[15],15 Hz
same,1H chemical shift perturbation upon RNA addition,[14],14 Hz
same,1H chemical shift perturbation upon RNA addition,[9],11.1 Hz
same,waterLOGSY factor,[19],1.5
same,waterLOGSY factor,[16],0.843
same,waterLOGSY factor,[7],1.98
same,waterLOGSY factor,[8],0.92
same,waterLOGSY factor,[17],0.03
CNC(=O)c1ccccc1NC(=O)c1ccco1,1H chemical shift perturbation upon RNA addition,[1],7 Hz
same,1H chemical shift perturbation upon RNA addition,[18],9 Hz
same,1H chemical shift perturbation upon RNA addition,[9],7.56 Hz
same,waterLOGSY factor,[2],2.9
same,waterLOGSY factor,[5],1.75
same,waterLOGSY factor,[12],5.59
same,waterLOGSY factor,[3],1.94
Cc1ccccc1OCC(=O)Nc1ccccc1,1H chemical shift perturbation upon RNA addition,[1],3 Hz
same,1H chemical shift perturbation upon RNA addition,[10],1 Hz
same,waterLOGSY factor,[2],1.7
same,waterLOGSY factor,[3],1.35
CCN(C)C(=O)c1cccc(N)c1,1H chemical shift perturbation upon RNA addition,[9],3.26 Hz
c1cc(-c2ccc3c(c2)OCO3)n[nH]1,1H chemical shift perturbation upon RNA addition,[1],6 Hz
same,1H chemical shift perturbation upon RNA addition,[9],6.37 Hz
same,waterLOGSY factor,[2],1.89
same,waterLOGSY factor,[5],1.27
same,waterLOGSY factor,[12],2.77
same,waterLOGSY factor,[3],1.61
OCc1cn(-c2ccc(Cl)c(Cl)c2)nn1,1H chemical shift perturbation upon RNA addition,[1],9 Hz
same,1H chemical shift perturbation upon RNA addition,[15],12 Hz
same,1H chemical shift perturbation upon RNA addition,[4],8 Hz
same,1H chemical shift perturbation upon RNA addition,[18],8 Hz
same,1H chemical shift perturbation upon RNA addition,[14],9 Hz
same,1H chemical shift perturbation upon RNA addition,[9],8.14 Hz
same,1H chemical shift perturbation upon RNA addition,[20],7 Hz
same,1H chemical shift perturbation upon RNA addition,[10],1 Hz
same,waterLOGSY factor,[2],11.7
same,waterLOGSY factor,[19],3.26
same,waterLOGSY factor,[11],4.26
same,waterLOGSY factor,[16],18.2
same,waterLOGSY factor,[5],2.1
same,waterLOGSY factor,[6],2.86
same,waterLOGSY factor,[12],4.69
same,waterLOGSY factor,[13],1.43
same,waterLOGSY factor,[7],6.13
same,waterLOGSY factor,[8],2.23
same,waterLOGSY factor,[3],3.69
same,waterLOGSY factor,[17],3.03
O=C(Nc1ccc2ncccc2c1)c1ccccc1,1H chemical shift perturbation upon RNA addition,[1],4 Hz
same,waterLOGSY factor,[2],2.16
same,waterLOGSY factor,[5],1.71
same,waterLOGSY factor,[12],1.99
same,waterLOGSY factor,[3],1.38
NC(=O)c1cc(N2CCCC2)ccn1,1H chemical shift perturbation upon RNA addition,[1],7 Hz
same,1H chemical shift perturbation upon RNA addition,[14],11 Hz
same,waterLOGSY factor,[2],2.54
same,waterLOGSY factor,[11],1.31
same,waterLOGSY factor,[5],1.67
same,waterLOGSY factor,[6],2.88
same,waterLOGSY factor,[12],3.47
same,waterLOGSY factor,[8],0.7
same,waterLOGSY factor,[3],0.99
N#Cc1ccc(NC(=O)c2cccs2)cc1,1H chemical shift perturbation upon RNA addition,[1],9 Hz
same,waterLOGSY factor,[2],2.54
same,waterLOGSY factor,[5],1.46
same,waterLOGSY factor,[12],8.77
same,waterLOGSY factor,[3],2.04
COc1ccc(CN)cc1OC,1H chemical shift perturbation upon RNA addition,[15],6 Hz
same,waterLOGSY factor,[17],0.76
Cc1nccc(N2CCC(N)CC2)n1,1H chemical shift perturbation upon RNA addition,[15],12 Hz
same,1H chemical shift perturbation upon RNA addition,[10],5 Hz
same,waterLOGSY factor,[2],1.64
same,waterLOGSY factor,[11],1.43
same,waterLOGSY factor,[16],0.728
same,waterLOGSY factor,[5],1.35
same,waterLOGSY factor,[6],2.68
same,waterLOGSY factor,[12],2.52
same,waterLOGSY factor,[17],1.04
O=C(Nc1ccon1)c1cccc(Cl)c1,1H chemical shift perturbation upon RNA addition,[1],7 Hz
same,1H chemical shift perturbation upon RNA addition,[4],5 Hz
same,waterLOGSY factor,[2],1.75
same,waterLOGSY factor,[5],1.45
same,waterLOGSY factor,[12],2.62
same,waterLOGSY factor,[3],1.4
CCNC1CCN(c2ccncc2)CC1,1H chemical shift perturbation upon RNA addition,[15],10 Hz
same,1H chemical shift perturbation upon RNA addition,[14],13 Hz
same,1H chemical shift perturbation upon RNA addition,[10],9 Hz
same,waterLOGSY factor,[2],2.65
same,waterLOGSY factor,[19],1.46
same,waterLOGSY factor,[11],1.88
same,waterLOGSY factor,[16],0.96
same,waterLOGSY factor,[5],1.76
same,waterLOGSY factor,[6],1.46
same,waterLOGSY factor,[13],0.841
same,waterLOGSY factor,[17],1.03
CC(=O)c1ccc(NC(=O)CN2CCCC2)cc1,1H chemical shift perturbation upon RNA addition,[1],10 Hz
same,1H chemical shift perturbation upon RNA addition,[14],10 Hz
same,1H chemical shift perturbation upon RNA addition,[10],7 Hz
same,waterLOGSY factor,[2],1.78
same,waterLOGSY factor,[11],1.2
same,waterLOGSY factor,[16],0.523
same,waterLOGSY factor,[5],1.38
same,waterLOGSY factor,[6],0.485
same,waterLOGSY factor,[12],1.22
same,waterLOGSY factor,[13],0.745
same,waterLOGSY factor,[3],1.22
COC(=O)Nc1nc2c(C)cccc2s1,waterLOGSY factor,[19],1.36
CNC(=O)Nc1nc2ccc(OC)cc2s1,waterLOGSY factor,[6],0.875
same,waterLOGSY factor,[13],0.421
same,waterLOGSY factor,[7],1.12
same,waterLOGSY factor,[8],0.65
NC(=O)c1ccnc(NC2CC=CC2)c1,waterLOGSY factor,[8],0.93
same,waterLOGSY factor,[3],1.34

# Part of the list above, with bars between the fields:
compound | measurement | setting | value
Cc1occc1C(=O)Nc1ccncc1 | 1H chemical shift perturbation upon RNA addition | [1] | 7 Hz
CNC(=O)c1ccccc1NC(=O)c1ccco1 | waterLOGSY factor | [5] | 1.75
same | waterLOGSY factor | [3] | 1.94
OCc1cn(-c2ccc(Cl)c(Cl)c2)nn1 | waterLOGSY factor | [2] | 11.7
same | waterLOGSY factor | [3] | 3.69

# Fetched one by one from the entries so far (4):
compound,measurement,setting,value
c1cc(-c2ccc3c(c2)OCO3)n[nH]1,waterLOGSY factor,[12],2.77
CN(C)c1ccc(C(=O)Nc2ccncc2)cc1,waterLOGSY factor,[8],0.92
Cc1nccc(N2CCC(N)CC2)n1,waterLOGSY factor,[2],1.64
same,waterLOGSY factor,[11],1.43
